Measurements taken from US12655385B2, “Cell culture compositions with antioxidants and methods for polypeptide production” (Genentech, Inc., priority 2013, dated 2026).
“Also recorded” adds a separate entry of the source. For at least one compound, name, drawing or mass did not settle the structure.

Assays:
[1] = system: antibody producing CHO cells; test: 2-liter stirred bioreactor fed-batch cell culture in Media 1/Media 2 with hypotaurine or carboxymethylcysteine; format: cell-based, Chinese Hamster
Experimental: Antibody producing CHO cells were inoculated at approximately 1.0×10^6 cells/mL in 2-liter stirred bioreactors (Applikon, Foster City, CA) containing 1 L of basal Media 1 supplemented with 12.95 mM hypotaurine or 10 mM carboxymethylcysteine (CAS number 638-23-3). Cells were cultured in fed-batch mode with addition of 100 mL of feed Media 2 per liter of cell culture fluid at days 3, 6 and 9 for initiation of the production phase. A positive control was included by culturing cells in Media 1 and 2 without hypotaurine supplementation. The concentration of glucose was analyzed every day and if the glucose concentration fell below 2 g/L, it was replenished from a […] stock solution of glucose for prevention of glucose depletion. Reactors were equipped with calibrated dissolved oxygen, pH and temperature probes. Dissolved oxygen was controlled on-line through sparging with air and/or oxygen. pH was controlled through addition of CO2 or Na2CO3 and antifoam was added to the cultures as needed. The cell cultures were maintained at pH 7.0 and a temperature of 37° C. from days 0 through 3, and then at 35° C. after day 3. The cell cultures were agitated at 275 rpm and the dissolved oxygen level was at 30% of air saturation. Osmolality was monitored using an osmometer from Advanced Instruments (Norwood, MA). Offline pH and metabolite concentrations were also determined daily using a Nova Bioprofile 400 (Nova Biomedical, Waltham, MA). VCC and cell viability was measured daily using a ViCell® automated cell counter (Beckman Coulter, Fullerton, CA). […] Color intensity of the concentrated antibody composition was measured in the concentrated protein A pool using two different assays wherein higher numerical values indicated higher color intensity and lower numerical values indicated lower color intensity. […] This color intensity reduction was confirmed by using a second color assay which detected an approximate 17% and 13% color intensity reduction in antibody compositions isolated from cell cultured in media supplemented with hypotaurine and carboxymethylcysteine, respectively (FIG. 9B).

IgG1 monoclonal antibody = test: Antioxidant screening: incubation of Media 1/Media 2 mixture spiked with antibody, color intensity of purified antibody; conditions: 1X test concentration (hypotaurine 9.16 mM, taurine 5.00 mM), 5 days 37° C.; normalized to positive control
Experimental: For antioxidant screening, a total volume of 40 ml media was prepared by mixing 1 part basal Media 1 and 0.3 part feed Media 2 to mirror a representative ratio of media used in cell culture conditions (Table 5). […] The samples were incubated at 37° C. with shaking at 250 rpm for a five day incubation period.
After incubation, the monoclonal antibody was purified using affinity chromatography. Color intensity of the concentrated antibody composition was measured in the purified pool using an assay wherein higher numerical values indicate higher color intensity and lower numerical values indicate lower color intensity. The numerical results were normalized to the positive control, where the value for the positive control was set at 0% change in color intensity.

[2] = system: antibody producing CHO cells; test: Shaker flask fed-batch cell culture in Media 1/Media 2 supplemented with hypotaurine; format: cell-based, Chinese Hamster

NCCS(=O)O [hypotaurine, 2-aminoethane-1-sulfinate]
Growth as measured by VCC ([1]; 12.95 mM hypotaurine or 10 mM carboxymethylcysteine in Media 1 (FIG. 7A)): comparable among all cell cultures tested; also recorded: did not compromise
cell viability ([1]; 12.95 mM hypotaurine or 10 mM carboxymethylcysteine in Media 1 (FIG. 7B)): comparable among all cell cultures tested; also recorded: did not compromise
antibody titer (HPLC) ([1]; 12.95 mM hypotaurine or 10 mM carboxymethylcysteine in Media 1 (FIG. 8)): comparable levels of antibody titers; also recorded: did not significantly reduce
reduction of color intensity of the antibody-containing compositions (IgG1 monoclonal antibody): approximately 25%
Growth as measured by VCC ([2]; Media 1 with 2.29-9.16 mM hypotaurine, 14 day culture (FIG. 4A)): comparable among all the cell cultures tested; also recorded: did not compromise
cell viability ([2]; Media 1 with 2.29-9.16 mM hypotaurine, 14 day culture (FIG. 4B)): comparable among all the cell cultures tested; also recorded: did not compromise
antibody titer (HPLC) ([2]; Media 1 with hypotaurine added Day 0, exception: incremental addition (FIG. 4C)): same level of antibody titers as cell cultures cultured in media not containing hypotaurine; also recorded: did not compromise
